Measured values published in paper PMC7305185.
Numbering of substitutions follows the chain as printed. Numbers in names are those of the source. Results are given in words; binding and its absence hold for the method and conditions named. Some results given as binding are weak or reduced against the parent protein; the word gives no strength.

Protein sequences, listed by entry. Tags and fused reporters are not part of them.
UniProt P06730: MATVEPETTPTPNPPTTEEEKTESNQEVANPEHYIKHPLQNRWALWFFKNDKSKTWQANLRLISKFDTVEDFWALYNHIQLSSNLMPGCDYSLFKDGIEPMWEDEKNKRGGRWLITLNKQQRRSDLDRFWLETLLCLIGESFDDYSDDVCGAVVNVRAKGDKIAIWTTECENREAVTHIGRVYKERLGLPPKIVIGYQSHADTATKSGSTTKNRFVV

B1: pT37/pT46/pS83 4E-BP2 (S65A/T70A) (protein, UniProt Q13542 1-120)
chain: MSSSAGSGHQPSQSRAIPTRTVAISDAAQLPHDYCTTPGGTLFSTTPGGTRIIYDRKFLLDRRNAPMAQAPPCHLPNIPGVTSPGTLIEDSKVEVNNLNNLNNHDRKHAVGDDAQFEMDI
modifications: phosphothreonine at 37 and 46; phosphoserine at 83
B2: pT37/pT46/pS65/pS83 4E-BP2 (T70A) (protein, UniProt Q13542 1-120)
chain: B1 chain with A65S
modifications: phosphothreonine at 37 and 46; phosphoserine at 65 and 83
B3: pT37/pT46/pT70/pS83 4E-BP2 (S65A) (protein, UniProt Q13542 1-120)
chain: B1 chain with A70T
modifications: phosphothreonine at 37, 46 and 70; phosphoserine at 83
B4: pT37/pT46/pS65/pT70 4E-BP2 (S83A) (protein, UniProt Q13542 1-120)
chain: B1 chain with A65S, A70T, S83A
modifications: phosphothreonine at 37, 46 and 70; phosphoserine at 65
B5: pT37/pT46/pS65 4E-BP2 (T70A/S83A) (protein, UniProt Q13542 1-120)
chain: B1 chain with A65S, S83A
modifications: phosphothreonine at 37 and 46; phosphoserine at 65
B6: pT37/pT46/pT70 4E-BP2 (S65A/S83A) (protein, UniProt Q13542 1-120)
chain: B1 chain with A70T, S83A
modifications: phosphothreonine at 37, 46 and 70

What follows are binders tested against eukaryotic translation initiation factor 4E (eIF4E) (UniProt P06730) (assay: ITC; MicroCal ITC200; data collection as detailed in ref. 11; KD as mean and standard deviation of repeat samples (n = 3 for 5p-4E-BP2, n = 2 or 1 for the other variants); both purified).

binding	Binder
binds	B1
binds	B2
binds	B3
binds	B4
binds	B5
binds	B6
